Measured values from paper PMC10462681.
No constants are given. Whether binding was seen depends on the method and setting. Binding seen in cells or lysates may run through a third protein. Some binding calls cover weakened binding; strength is not graded here. Where a sequence is shown, tags or fusion partners need not be part of it.

Protein sequences, listed by entry. Tags and fused reporters are not part of them. Lines headed by an entry give the natural chain unless they say otherwise; changes in a name come on top. Chains listed by the source or under a name are the forms on record and can include a tag or linker. Residues count along the entry.
LRP4-HA, wild-type (full-length human LRP4), expressed on the surface of COS7 cells (O75096, residues 21-1905): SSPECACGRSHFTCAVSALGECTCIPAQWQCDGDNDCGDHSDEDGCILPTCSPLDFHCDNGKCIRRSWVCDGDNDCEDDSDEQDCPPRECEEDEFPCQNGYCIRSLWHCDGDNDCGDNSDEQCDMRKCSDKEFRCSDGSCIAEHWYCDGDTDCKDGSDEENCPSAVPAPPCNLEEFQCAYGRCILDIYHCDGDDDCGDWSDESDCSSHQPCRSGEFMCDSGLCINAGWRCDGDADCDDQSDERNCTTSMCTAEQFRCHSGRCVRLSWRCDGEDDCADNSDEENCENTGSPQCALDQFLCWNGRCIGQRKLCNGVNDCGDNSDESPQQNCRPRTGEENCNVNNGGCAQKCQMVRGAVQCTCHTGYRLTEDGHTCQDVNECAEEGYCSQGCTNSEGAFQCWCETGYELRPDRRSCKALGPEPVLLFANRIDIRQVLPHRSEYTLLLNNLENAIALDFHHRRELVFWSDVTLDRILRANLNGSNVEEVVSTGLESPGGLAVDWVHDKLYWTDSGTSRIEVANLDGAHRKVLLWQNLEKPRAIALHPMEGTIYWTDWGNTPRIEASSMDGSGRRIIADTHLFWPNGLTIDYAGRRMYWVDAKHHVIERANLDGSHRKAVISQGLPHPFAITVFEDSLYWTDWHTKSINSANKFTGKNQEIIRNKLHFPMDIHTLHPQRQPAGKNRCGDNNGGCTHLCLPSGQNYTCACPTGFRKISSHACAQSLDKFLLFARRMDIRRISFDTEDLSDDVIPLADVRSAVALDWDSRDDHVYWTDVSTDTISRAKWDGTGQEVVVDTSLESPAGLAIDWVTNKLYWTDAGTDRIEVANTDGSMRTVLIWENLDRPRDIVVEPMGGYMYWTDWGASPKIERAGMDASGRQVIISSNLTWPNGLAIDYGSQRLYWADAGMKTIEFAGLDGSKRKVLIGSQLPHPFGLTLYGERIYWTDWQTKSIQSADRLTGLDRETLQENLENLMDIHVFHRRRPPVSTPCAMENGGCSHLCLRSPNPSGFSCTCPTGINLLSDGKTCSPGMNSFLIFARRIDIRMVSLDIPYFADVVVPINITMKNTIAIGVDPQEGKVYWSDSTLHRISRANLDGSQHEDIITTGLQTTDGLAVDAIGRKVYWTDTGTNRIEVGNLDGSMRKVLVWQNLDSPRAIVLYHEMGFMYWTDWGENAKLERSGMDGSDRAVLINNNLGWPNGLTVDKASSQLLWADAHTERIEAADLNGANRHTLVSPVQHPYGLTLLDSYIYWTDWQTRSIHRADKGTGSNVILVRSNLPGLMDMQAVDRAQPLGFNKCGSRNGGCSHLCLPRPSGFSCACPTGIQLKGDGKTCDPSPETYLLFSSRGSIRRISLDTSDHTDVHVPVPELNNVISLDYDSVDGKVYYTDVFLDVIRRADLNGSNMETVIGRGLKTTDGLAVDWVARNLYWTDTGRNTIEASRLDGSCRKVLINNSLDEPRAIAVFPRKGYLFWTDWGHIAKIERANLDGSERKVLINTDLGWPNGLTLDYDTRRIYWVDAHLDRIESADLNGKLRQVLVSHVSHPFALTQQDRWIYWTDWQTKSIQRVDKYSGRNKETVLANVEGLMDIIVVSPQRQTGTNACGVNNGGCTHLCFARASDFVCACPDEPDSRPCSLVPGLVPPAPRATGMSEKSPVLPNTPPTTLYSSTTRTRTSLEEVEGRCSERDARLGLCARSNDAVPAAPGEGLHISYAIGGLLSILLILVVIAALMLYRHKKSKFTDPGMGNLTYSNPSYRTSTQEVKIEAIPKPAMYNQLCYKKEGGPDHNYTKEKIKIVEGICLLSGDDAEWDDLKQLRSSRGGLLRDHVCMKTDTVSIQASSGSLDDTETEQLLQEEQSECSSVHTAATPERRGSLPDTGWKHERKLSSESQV
LRP4-HA mutant p.Tyr607Cys (c.1820A > G; LRP4-Mut), expressed in HEK293T cells (O75096, form named): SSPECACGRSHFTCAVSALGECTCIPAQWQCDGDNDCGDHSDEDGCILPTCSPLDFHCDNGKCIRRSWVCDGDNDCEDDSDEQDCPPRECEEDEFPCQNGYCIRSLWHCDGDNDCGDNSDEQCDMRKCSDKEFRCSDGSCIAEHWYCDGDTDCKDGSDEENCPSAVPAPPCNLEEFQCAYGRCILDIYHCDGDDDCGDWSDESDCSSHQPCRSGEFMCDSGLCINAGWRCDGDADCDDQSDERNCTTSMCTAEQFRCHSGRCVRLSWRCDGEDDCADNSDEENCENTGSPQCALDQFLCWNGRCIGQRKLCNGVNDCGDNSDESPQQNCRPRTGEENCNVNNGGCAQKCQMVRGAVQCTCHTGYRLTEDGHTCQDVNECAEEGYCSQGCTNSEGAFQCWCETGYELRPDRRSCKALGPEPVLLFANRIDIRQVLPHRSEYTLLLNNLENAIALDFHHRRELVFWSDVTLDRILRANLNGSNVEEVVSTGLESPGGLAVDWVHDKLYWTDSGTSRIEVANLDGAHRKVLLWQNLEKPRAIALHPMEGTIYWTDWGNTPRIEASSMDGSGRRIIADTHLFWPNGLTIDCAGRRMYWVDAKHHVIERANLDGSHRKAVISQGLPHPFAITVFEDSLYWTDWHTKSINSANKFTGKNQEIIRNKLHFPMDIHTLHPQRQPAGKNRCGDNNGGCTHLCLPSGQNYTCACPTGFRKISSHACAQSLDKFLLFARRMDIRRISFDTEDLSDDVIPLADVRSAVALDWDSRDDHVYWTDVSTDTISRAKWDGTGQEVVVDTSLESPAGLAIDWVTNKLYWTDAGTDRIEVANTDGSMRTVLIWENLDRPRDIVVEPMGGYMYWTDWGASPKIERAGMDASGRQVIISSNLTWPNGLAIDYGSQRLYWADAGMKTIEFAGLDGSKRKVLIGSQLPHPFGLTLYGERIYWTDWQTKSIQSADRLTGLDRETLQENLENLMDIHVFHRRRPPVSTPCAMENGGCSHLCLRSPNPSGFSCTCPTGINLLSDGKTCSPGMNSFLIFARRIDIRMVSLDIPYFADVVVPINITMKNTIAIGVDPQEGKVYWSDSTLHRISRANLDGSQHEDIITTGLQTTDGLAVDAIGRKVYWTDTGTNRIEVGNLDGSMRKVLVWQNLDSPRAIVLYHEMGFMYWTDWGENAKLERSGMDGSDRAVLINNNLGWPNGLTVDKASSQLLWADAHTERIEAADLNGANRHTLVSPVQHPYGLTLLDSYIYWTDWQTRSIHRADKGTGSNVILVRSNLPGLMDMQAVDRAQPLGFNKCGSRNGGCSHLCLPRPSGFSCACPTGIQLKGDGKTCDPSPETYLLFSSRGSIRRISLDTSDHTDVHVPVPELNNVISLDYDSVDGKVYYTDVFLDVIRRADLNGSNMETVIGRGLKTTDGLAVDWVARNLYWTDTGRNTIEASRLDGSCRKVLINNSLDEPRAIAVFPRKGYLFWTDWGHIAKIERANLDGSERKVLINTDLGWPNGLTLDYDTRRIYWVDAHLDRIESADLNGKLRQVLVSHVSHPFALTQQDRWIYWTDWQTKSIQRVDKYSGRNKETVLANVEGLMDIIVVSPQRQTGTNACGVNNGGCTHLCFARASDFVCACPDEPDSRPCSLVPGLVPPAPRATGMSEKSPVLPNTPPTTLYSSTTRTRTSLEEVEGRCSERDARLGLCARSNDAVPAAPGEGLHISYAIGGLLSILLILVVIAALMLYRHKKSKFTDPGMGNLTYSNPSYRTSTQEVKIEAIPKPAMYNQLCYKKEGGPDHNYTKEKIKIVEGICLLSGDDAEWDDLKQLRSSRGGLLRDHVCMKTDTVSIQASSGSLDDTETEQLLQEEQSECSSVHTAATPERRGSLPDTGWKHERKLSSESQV

T1: MuSK-Flag (mouse muscle specific kinase) (mouse) (UniProt Q61006)
T1 sequence: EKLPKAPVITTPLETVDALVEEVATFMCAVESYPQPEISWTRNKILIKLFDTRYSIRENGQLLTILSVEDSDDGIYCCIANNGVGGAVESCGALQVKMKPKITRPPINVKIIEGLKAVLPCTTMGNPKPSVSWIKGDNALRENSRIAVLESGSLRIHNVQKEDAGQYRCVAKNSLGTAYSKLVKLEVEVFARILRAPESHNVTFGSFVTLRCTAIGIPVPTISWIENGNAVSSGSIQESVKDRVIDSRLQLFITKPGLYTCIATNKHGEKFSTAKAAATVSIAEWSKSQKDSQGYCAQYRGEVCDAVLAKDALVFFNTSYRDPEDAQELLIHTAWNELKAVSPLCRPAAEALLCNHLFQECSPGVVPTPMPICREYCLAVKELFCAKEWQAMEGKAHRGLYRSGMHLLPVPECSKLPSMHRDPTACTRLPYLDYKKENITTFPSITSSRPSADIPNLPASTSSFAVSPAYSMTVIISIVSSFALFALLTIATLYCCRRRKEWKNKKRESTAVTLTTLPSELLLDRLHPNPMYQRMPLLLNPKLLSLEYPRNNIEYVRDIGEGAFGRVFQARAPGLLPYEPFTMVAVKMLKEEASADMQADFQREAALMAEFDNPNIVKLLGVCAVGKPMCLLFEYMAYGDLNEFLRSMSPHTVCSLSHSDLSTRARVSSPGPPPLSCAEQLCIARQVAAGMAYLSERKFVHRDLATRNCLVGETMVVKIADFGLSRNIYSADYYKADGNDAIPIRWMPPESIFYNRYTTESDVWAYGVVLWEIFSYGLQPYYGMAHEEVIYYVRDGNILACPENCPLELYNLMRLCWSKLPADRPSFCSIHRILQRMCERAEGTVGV

B1: Wnt11-Myc (mouse Wnt11) (ligand, UniProt P48615 25-354)
chain: IKWLALSKTPAALALNQTQHCKQLEGLVSAQVQLCRSNLELMRTIVHAARGAMKACRRAFADMRWNCSSIELAPNYLLDLERGTRESAFVYALSAATISHTIARACTSGDLPGCSCGPVPGEPPGPGNRWGGCADNLSYGLLMGAKFSDAPMKVKKTGSQANKLMRLHNSEVGRQALRASLETKCKCHGVSGSCSIRTCWKGLQELQDVAADLKTRYLSATKVVHRPMGTRKHLVPKDLDIRPVKDSELVYLQSSPDFCMKNEKVGSHGTQDRQCNKTSNGSDSCDLMCCGRGYNPYTDRVVERCHCKYHWCCYVTCRRCERTVERYVCK

Tests used:
[1] = molecular target: T1, MuSK-Flag (mouse muscle specific kinase) (mouse); assay: co-IP; HEK293T cells co-transfected 24 h with MuSK-Flag and wild-type or mutant LRP4-HA (2 µg of each plasmid); immunoprecipitation with anti-HA or anti-Flag, western blot with anti-Flag or anti-HA
[2] = molecular target: LRP4-HA, wild-type (full-length human LRP4), expressed on the surface of COS7 cells (human) (UniProt O75096); assay: co-IP; co-culture immunoprecipitation: LRP4-HA on the surface of COS7 cells and Wnt11-Myc secreted by HEK293T cells, 24 h of co-culture, immunoprecipitation of LRP4-HA, western blot with anti-HA and anti-Myc; N = 3

| Molecule | binding [1] | binding [2] |
| --- | --- | --- |
| LRP4-HA mutant p.Tyr607Cys (c.1820A > G; LRP4-Mut), expressed in HEK293T cells (from UniProt O75096 21-1905) (receptor) | binds |  |
| LRP4-HA, wild-type (full-length human LRP4, LDL receptor related protein 4), expressed in HEK293T cells (from UniProt O75096 21-1905) | binds |  |
| B1 |  | binds |
